Experimental data: PubChem BioAssay AID1159578 (Peter MacCallum Cancer Centre, 2015)

Screen: 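Knock-downs that alter how fast lymphatic endothelial cells migrate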 (primary screen)
Cell system: human lymphatic endothelial cells
Reagent: siRNA pool against human genes, 40 nM
Time to read-out: 48 h after transfection
Read-out: 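High-content imaging of dye-stained cells in a scratch assay measures filled wound area and nuclei per well; duplicate means given as ratio to mock and robust z-score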
Scale: migration robust z-score: higher = faster migration into the scratch; nuclei per well: higher = more cells in the well
Hit rule: 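Migration changed when robust z exceeds 2 or falls below -2 and mean nuclei number is at least 3300; otherwise not called changed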
Meaning of the calls: active = migration changed; inactive = no migration change, or too few cells
In all, the deposit lists about 18,000 reagents; shown is a random part of them. Of all reagents, about 1,030 (5.7%) were called active. 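Inactive calls also include pools with fewer than 3300 nuclei, whose migration was not assessed.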 The raw values are shown without normalisation. Further read-outs or replicates are left out here.

{"gene symbol": "ANAPC5 (anaphase promoting complex subunit 5)", "migration robust z-score": 0.36, "nuclei per well, duplicate mean": 6528, "Call": "inactive"}
{"gene symbol": "STX1B (syntaxin 1B)", "migration robust z-score": 1.92, "nuclei per well, duplicate mean": 6186, "Call": "inactive"}
{"gene symbol": "PPP4C (protein phosphatase 4 catalytic subunit)", "migration robust z-score": 0.28, "nuclei per well, duplicate mean": 4586, "Call": "inactive"}
{"gene symbol": "CLDN8 (claudin 8)", "migration robust z-score": 0.52, "nuclei per well, duplicate mean": 5864, "Call": "inactive"}
{"gene symbol": "RPAP3 (RNA polymerase II associated protein 3)", "migration robust z-score": -0.39, "nuclei per well, duplicate mean": 5467, "Call": "inactive"}
{"gene symbol": "NEURL2 (neuralized E3 ubiquitin protein ligase 2)", "migration robust z-score": 0.16, "nuclei per well, duplicate mean": 5697, "Call": "inactive"}
{"gene symbol": "CD160 (CD160 molecule)", "migration robust z-score": -2.21, "nuclei per well, duplicate mean": 4048, "Call": "active"}
{"gene symbol": "ANKRD55 (ankyrin repeat domain 55)", "migration robust z-score": -0.12, "nuclei per well, duplicate mean": 5394, "Call": "inactive"}
{"gene symbol": "PRICKLE2 (prickle planar cell polarity protein 2)", "migration robust z-score": 1.71, "nuclei per well, duplicate mean": 4668, "Call": "inactive"}
{"gene symbol": "PICK1 (protein interacting with PRKCA 1)", "migration robust z-score": -0.2, "nuclei per well, duplicate mean": 5327, "Call": "inactive"}
{"gene symbol": "SNX7 (sorting nexin 7)", "migration robust z-score": 2.56, "nuclei per well, duplicate mean": 5452, "Call": "active"}
{"gene symbol": "PACC1 (proton activated chloride channel 1)", "migration robust z-score": 0.98, "nuclei per well, duplicate mean": 5402, "Call": "inactive"}
{"gene symbol": "OR4C3 (olfactory receptor family 4 subfamily C member 3)", "migration robust z-score": 0.1, "nuclei per well, duplicate mean": 4584, "Call": "inactive"}
{"gene symbol": "USP36 (ubiquitin specific peptidase 36)", "migration robust z-score": -0.31, "nuclei per well, duplicate mean": 5539, "Call": "inactive"}
{"gene symbol": "TAF1A", "migration robust z-score": 1.9, "nuclei per well, duplicate mean": 6244, "Call": "inactive"}
{"gene symbol": "CTU2 (cytosolic thiouridylase subunit 2)", "migration robust z-score": 0.33, "nuclei per well, duplicate mean": 6481, "Call": "inactive"}
{"gene symbol": "CRIP3 (cysteine rich protein 3)", "migration robust z-score": 1.02, "nuclei per well, duplicate mean": 6318, "Call": "inactive"}
{"gene symbol": "SLC27A4", "migration robust z-score": 1.01, "nuclei per well, duplicate mean": 5182, "Call": "inactive"}
{"gene symbol": "IQCE (IQ motif containing E)", "migration robust z-score": -1.12, "nuclei per well, duplicate mean": 6366, "Call": "inactive"}
{"gene symbol": "OR1B1 (olfactory receptor family 1 subfamily B member 1)", "migration robust z-score": 0.07, "nuclei per well, duplicate mean": 5350, "Call": "inactive"}
{"gene symbol": "ACADM (acyl-CoA dehydrogenase medium chain)", "migration robust z-score": -1.53, "nuclei per well, duplicate mean": 5502, "Call": "inactive"}
{"gene symbol": "BBS7 (Bardet-Biedl syndrome 7)", "migration robust z-score": -2.58, "nuclei per well, duplicate mean": 4304, "Call": "active"}
{"gene symbol": "EPHA3 (EPH receptor A3)", "migration robust z-score": -0.62, "nuclei per well, duplicate mean": 4160, "Call": "inactive"}
{"gene symbol": "ZKSCAN2 (zinc finger with KRAB and SCAN domains 2)", "migration robust z-score": 1.14, "nuclei per well, duplicate mean": 4913, "Call": "inactive"}
{"gene symbol": "DBR1 (debranching RNA lariats 1)", "migration robust z-score": -0.1, "nuclei per well, duplicate mean": 5919, "Call": "inactive"}
{"gene symbol": "SPINK8 (serine peptidase inhibitor Kazal type 8 (putative))", "migration robust z-score": 1.22, "nuclei per well, duplicate mean": 5768, "Call": "inactive"}
{"gene symbol": "FOXA3 (forkhead box A3)", "migration robust z-score": 0.52, "nuclei per well, duplicate mean": 5768, "Call": "inactive"}

In a second layout: results already given
gene symbol	migration robust z-score	nuclei per well, duplicate mean	Call
STX1B (syntaxin 1B)	1.92	6186	inactive
PPP4C (protein phosphatase 4 catalytic subunit)	0.28	4586	inactive
CLDN8 (claudin 8)	0.52	5864	inactive
RPAP3 (RNA polymerase II associated protein 3)	-0.39	5467	inactive
